“And” between values parts separate entries of the source, which are not always exact repeats. Identical values can stand only once. The source gives many values for each of these; only a part stands here.
System: NCI-H196 complex spheroid growth, percent test/control
Test: Anticancer human tumor NCI-H196 cell line growth inhibition [AhR];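 also: seven days of drug exposure starting three days after plating; 100% = DMSO vehicle control wells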
Settings: hits give low values; active = viability on the fitted dose curve at most 10% of control; inactive = the rest
Source text: Multicellular complex tumor spheroid response to aryl hydrocarbon receptor antagonists in combination with a variety of drugs and investigational agents in selected tumor cell lines
The current study was undertaken to assess response to aryl hydrocarbon receptor antagonists in combination with standard-of-care drugs and investigational agents in solid tumor complex spheroid models. Complex spheroids include a stromal component modeled by human endothelial cells (HUVEC) and fibroblasts modeled by human mesenchymal stem cells (MSCs). The concentration ranges selected for each drug and investigational agent were based upon clinically achievable concentrations if the clinical Cmax of the agent was known.
Compounds. The drugs and investigational agents: BAY 2416964 (NSC825713), GNF351 (NSC835774), CH-223191 (NSC835775), CPI-455 (NSC825282), aza-TdCyd (NSC777586), decitabine (NSC127716), belinostat (NSC758774), entinostat (NSC756642), pevonedistat (NSC761192), tazemetostat (NSC777109), talazoparib (NSC765396), olaparib (NSC753686), selinexor (NSC780203), nedisertib (M3814, NSC802822), bortezomib (NSC756655), venetoclax (NSC766270), doxorubicin (NSC123127), elimusertib (BAY189344, NSC800525), ceralasertib (AZD6738, NSC777638), TAK-243 (NSC785004), alisertib (NSC759677), etoposide (NSC141540), topotecan (NSC609699), eribulin (NSC707389), gemcitabine (NSC613327), carboplatin (NSC241240), cisplatin (NSC119875), and SN-38 (NSC673596) were obtained from the National Cancer Institute (NCI) Developmental Therapeutics Program Chemical Repository (32). The FDA-approved anticancer drug set is available from the Developmental Therapeutics Program at https://dtp.cancer.gov/organization/dscb/obtaining/available plates.htm. […] The stock solutions were prepared in dimethyl sulfoxide (DMSO, Sigma-Aldrich, St. Louis, MO, cat. D2650), except for the platinum compounds which were prepared in saline (Quality Biological, Gaithersburg, MD, cat. 114-055-101), at 800-fold the tested concentration and stored at -70 degrees C prior to their use. All drugs and investigational agents were tested over a range starting from a high concentration at or near the clinical Cmax and decreasing in half-log increments. If the clinical Cmax for an agent had not been determined, the highest concentration tested was 10 microM (Table 1).
Cell Culture. All cells were maintained in an incubator at 37 degrees C and 5% CO2 with 95% humidity. The PDC lines were cultured according to standard operating procedures established by the NCI PDMR (https://pdmr.cancer.gov). Briefly, all PDCs were thawed and cultured in Matrigel-coated flasks prepared with a working solution of 1X Ham's F-12 nutrient mix, without supplementation (Invitrogen, Waltham, MA, cat. 11765054), 100 U/mL penicillin-streptomycin (Invitrogen, cat. 15140122), and 2.5% Matrigel (Corning Inc., Corning, NY, cat. 354248) for the first three passages. All PDCs were cultured in complete DMEM/F-12 media containing advanced DMEM/F-12 (Invitrogen, cat. 12634028), 4.9% defined fetal bovine serum, heat inactivated (HyClone Laboratories Inc., Logan, UT, cat. SH30070.03HI), 389 ng/mL hydrocortisone (Sigma-Aldrich, cat. H4001), 9.7 ng/mL human EGF recombinant protein (Invitrogen, cat. PHG0313), 23.4 microg/mL adenine (Sigma-Aldrich, cat. A2786), 97.3 U/mL penicillin-streptomycin (Invitrogen, cat. 15140122), 1.9 mM L-glutamine (Invitrogen, cat. 25030081), and 9.7 microM Y-27632 dihydrochloride (Tocris Bioscience, Bristol, United Kingdom, cat. 1254). The PDCs were cultured in complete DMEM/F12 media without 10 microM Y-27632 dihydrochloride for at least two passages prior to the screen. The established cell lines NCI-H1341 and […] were cultured in DMEM/F-12, HEPES (Invitrogen, cat. 11330032), 5% defined fetal bovine serum (HyClone Laboratories Inc., cat. SH30070.03), ITS premix universal culture supplement [insulin (5 microg/mL), transferrin (5 microg/mL), and selenious acid (5 ng/mL)] […]

Measured: viability, T/C

Cc1ccccc1N=Nc1ccc(NC(=O)c2ccnn2C)c(C)c1
inactive: compound 0.1 µM 97.5% [middle of 5 runs] | compound 0.316 µM 102% [middle of 4 runs] | compound 1 µM 94.6% [middle of 4 runs] | compound 3.16 µM 99.8% and 82.7% | compound 10 µM 89.6% [middle of 5 runs]

Cc1cncc(-c2nc(NCCc3c[nH]c4ccccc34)c3ncn(C(C)C)c3n2)c1
inactive: compound 0.316 µM 96.6% [middle of 5 runs] | compound 1 µM 110% and 86.1% | compound 3.16 µM 85.3% and 117% and 99.9% | compound 10 µM 90.9% and 71.2% (2×) and 86.2%

CC(CO)NC(=O)c1cc(-c2ccc(Cl)cc2)nn(-c2cnn(C)c2)c1=O (centres undefined)
inactive: compound 0.1 µM 115% and 95.5% | compound 0.316 µM 99.2% and 96.4% | compound 1 µM 86.1% and 114% | compound 3.16 µM 99.2% and 123% | compound 10 µM 94.9% and 121%

From PubChem BioAssay AID1919016 (Molecular Pharmacology Branch, DTP, NCI, 2023)
